The chains behind the UniProt entries cited, without tags or fusion partners. Where a name states a change or a piece, a line headed by the entry shows the natural chain unless it says otherwise.
UniProt P06396: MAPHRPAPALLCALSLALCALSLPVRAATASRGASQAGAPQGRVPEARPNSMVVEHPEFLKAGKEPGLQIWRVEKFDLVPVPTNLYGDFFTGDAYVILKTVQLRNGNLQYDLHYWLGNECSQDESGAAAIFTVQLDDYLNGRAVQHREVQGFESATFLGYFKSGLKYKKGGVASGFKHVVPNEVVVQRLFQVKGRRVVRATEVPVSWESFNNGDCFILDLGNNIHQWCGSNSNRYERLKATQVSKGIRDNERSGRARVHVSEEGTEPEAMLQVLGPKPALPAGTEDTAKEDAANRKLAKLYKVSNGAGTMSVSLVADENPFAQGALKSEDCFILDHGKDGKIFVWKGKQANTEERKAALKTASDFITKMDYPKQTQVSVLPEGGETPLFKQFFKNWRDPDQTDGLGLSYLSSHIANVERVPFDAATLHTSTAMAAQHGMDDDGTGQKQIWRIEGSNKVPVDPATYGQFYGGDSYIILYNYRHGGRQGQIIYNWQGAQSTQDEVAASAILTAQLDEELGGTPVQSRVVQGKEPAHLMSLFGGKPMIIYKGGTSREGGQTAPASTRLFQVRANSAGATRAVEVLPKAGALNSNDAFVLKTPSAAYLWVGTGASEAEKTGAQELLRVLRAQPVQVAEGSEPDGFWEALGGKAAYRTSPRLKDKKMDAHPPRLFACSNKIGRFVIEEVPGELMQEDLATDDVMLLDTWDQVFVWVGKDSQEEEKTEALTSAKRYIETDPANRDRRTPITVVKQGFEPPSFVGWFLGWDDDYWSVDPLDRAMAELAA
UniProt P03129: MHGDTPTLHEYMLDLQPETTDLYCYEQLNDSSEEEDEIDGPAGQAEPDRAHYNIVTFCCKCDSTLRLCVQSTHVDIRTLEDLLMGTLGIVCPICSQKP

In article PMC5239452:

Assays:
[1] = biological target: gelsolin (human (endogenous in SiHa, CaSki and C-33A)) (UniProt P06396); test: FRET or BRET; quantitative FRET by flow cytometry, cell by cell, in fixed and permeabilised SiHa and CaSki cells (C-33A as E7-null reference); endogenous E7 labelled with anti-E7 MAb + PE anti-mouse (donor, FL2), GSN with anti-gelsolin PAb + Cy5 anti-rabbit (acceptor, FL4), FRET in FL3; FRET efficiency by Riemann's algorithm
[2] = biological target: gelsolin (human (endogenous in SiHa, CaSki and C-33A)) (UniProt P06396); test: FRET or BRET; quantitative FRET by flow cytometry in fixed and permeabilised C-33A cells transfected with E7 wt or deletion mutants, analysis restricted to FL1-positive (transfected) cells; E7 labelled with anti-E7 MAb + PE anti-mouse (donor), endogenous GSN with anti-gelsolin PAb + Cy5 anti-rabbit (acceptor); FRET efficiency by Riemann's algorithm

Row | Substance | binding [1] | binding [2]
1 | HPV16 E7 oncoprotein (from UniProt P03129 1-98) | binds | –
2 | wild type E7 oncoprotein (E7 wt) (from UniProt P03129 1-98) | – | binds

No constants are given. Whether binding was seen depends on the method and setting. In cells and extracts the contact can be indirect. Binding calls can cover weak binding; strength is not graded here.
